# Primary screen of a compound library

The values are deposited in ChEMBL (CHEMBL3988442, “University of Dundee, Small-Polar-MMV Screening Library” (2021)).

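Viability assay of Plasmodium falciparum sporozoites; the read-out is not stated. The concentration is filed as 10 mM, unlikely as a test dose, so the dose is not known. The record gives no direction; compounds that gave an IC50 in retests scored well above the rest, so higher reads as lower viability. Strong results were mostly tested again. Size under these conditions: about 34,000 compounds, about 280 of them at 50% or above in at least one test.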

Each number is a percent effect as filed. The record does not define 0% and 100%; most values in the screen are far below 50% and negative numbers occur (in some assays of this library far below -100). This is an unselected part of the compounds tested. Two or more numbers in one place are separate tests of the same structure; such repeats can differ widely.

SMILES,effect
COc1ccccc1OCCC(=O)N1CCCC1Cn1cccn1 (stereo not given),14.12
CCc1nccn1-c1cccc(C2CCCN2)n1.Cl.Cl (stereo not given),-113.3
O=C(Cc1ccsc1)N1CCC(c2noc(-c3cccnc3)n2)CC1,-0.09363
CC(O)CN1CCC(CNCc2cn(-c3ccccc3)nn2)CC1 (stereo not given),-1.207
COCC1c2c(cnn2C)CCN1Cc1ccoc1 (stereo not given),-16.46
CCc1ncc2c(n1)CN(Cc1nc(-c3ccsc3)no1)CC2,8.72
Cc1ccccc1OCCC(=O)NC(C)c1nnc2n1CCCCC2 (stereo not given),-0.4507
CC(=O)N(Cc1noc(C2CC2)n1)C1CCN(CC2CCOCC2)C1 (stereo not given),2.244
COCCn1cc(NCc2cn(C)nc2-c2ccncc2)cn1,9.143
Cc1ccc(CNC(=O)CN(CCC(N)=O)c2ccc(F)cc2)cc1,-2.289
O=C(Nc1cccnc1)C1=NN(c2ccccc2)C(=O)CN1,13.37
CC(=O)Nc1nc(CN2CCOC(Cn3cncn3)C2)cs1 (stereo not given),-5.272
Cc1nc(C)c(C(=O)NCCNc2ncccn2)s1,14.45
Cn1cnnc1C1CCCN(C(=O)c2ccccn2)C1 (stereo not given),-2.279
O=C(O)C(F)(F)F.O=C(O)C(F)(F)F.[H][C@@]12CCCO[C@]1([H])[C@H](N(C)Cc1ccco1)CN(Cc1nccs1)C2,-5.839
COc1cccc(CNC(C)C)c1OCc1ccc(C)cc1.Cl,-15.54
CCOCC1CN(C(=O)c2cccs2)Cc2cnn(CC3CC3)c21 (stereo not given),4.333
COCCN1CCn2c(CN(C)C(C)C)cnc2C1.O=C(O)C(F)(F)F.O=C(O)C(F)(F)F,5.998
[H][C@@]12CCN(c3cnccn3)C[C@@]1(C(=O)O)CCCN2Cc1ccncc1,11.8
CCN(CC)C(=O)CN1CCc2nc(C3CCNCC3)nc(NC)c2C1.Cl,-0.5812
O=C(c1ccco1)N1CCC(n2nc(-c3ccco3)ccc2=O)CC1,10.79
C/C=C(\C)CN1C[C@H](NC(=O)CN2CCCC2=O)[C@@H](c2ccc(C)o2)C1,-3.388
CCOc1cncc(N2CCN(c3ccccc3F)CC2)n1,-22.03
CC(C)Cn1cc(NC(=O)NCC2CCN(c3ccccc3)C2)cn1 (stereo not given),-27.58 & -24.93
COc1ccc(Nc2nc(N)c(C(C)=O)s2)cc1OC,-6.449
COc1ccc(-c2cc(N)on2)cc1,12.34
CCn1ncc2c1CCCC2NCc1cccc2c1OCCCO2 (stereo not given),-9.61 & 41.18 & -9.481
Cc1ccn(-c2ccccc2NCc2ncc[nH]2)n1,-4.841
O=C(O)C(F)(F)F.[H][C@@]12COC[C@]1(CNC(=O)C1CCC1)CN(Cc1ccccc1C)C2,-5.232
CCc1nnc2n1CCN(C(=O)c1ccc(-c3ccco3)nc1C)C2,16.86
CCC(=O)N1CCC(c2nc(O)c3c(n2)CN(C2CCCCC2)CC3)C1 (stereo not given),10.14
Cc1cnn(C2CN(Cc3nc(-c4ccccc4C)no3)C2)c1,2.082
Cc1cc(CN(C)C(=O)c2cc3c([nH]c2=O)CCCC3=O)no1,-2.59
Cc1ccc(SCCN(C)C(=O)c2cn(CCN)nn2)cc1,-19.13 & -11.66
COCc1nc(C(=O)N2CCCC2c2noc(C)n2)cs1 (stereo not given),-2.657 & 10.23 & -13.78
CC(=O)N1N=C(c2ccccc2)OC1C(=O)NCCN(C(C)C)C(C)C (stereo not given),-2.108
CCCC(NC(=O)c1cc(C2CC2)[nH]n1)c1nnc2ccccn12 (stereo not given),-16.32
CCCc1nc(CN2CCN(Cc3noc(CCC)n3)CC2)no1,-13.6
[H][C@]12COC[C@H](NS(C)(=O)=O)[C@@]1([H])CN(Cc1ccco1)C2,7.42
COCC1CCN(C(=O)c2cccc(S(=O)(=O)NCC3(C)COC3)c2)C1 (stereo not given),-14.99
CC(C)c1ccc(-n2ncc(C(=O)NCC3COC(C)(C)O3)c2N)cc1 (stereo not given),7.329
COc1ccc(C(=O)N(C)Cc2ncc(C)c(OC)c2C)c(OC)c1,11.15
O=C(O)C(F)(F)F.O=C(c1ncccn1)N1CCC2(CC1)COC(COc1ccccn1)C2 (stereo not given),-21.17
C[S+]([O-])c1nncn1CC(=O)c1cccc(Cl)c1 (stereo not given),0.4614
Cc1nc2ccnn2c(C)c1CCC(=O)N1CCSCC1,-7.989
COCC1(Nc2nc(C)nc3c2cnn3C)CCCC1,7.162
CCC(CC)c1nnc(NC(=O)N2CCC(C(N)=O)CC2)s1,-8.76 & -13.24
c1ccc(-c2cc(CN3CCC(c4ccn[nH]4)CC3)on2)cc1,-6.471
CCc1ccc(C(=O)N2CCCCC2Cn2cccn2)o1 (stereo not given),-5.273
CC(=O)N1CCC2(CC1)CN(C(=O)c1cccc3[nH]ccc13)C2,4.44
Cc1nn(C)c(N(C)C)c1CNCc1cccc(Cn2ccnc2)c1,16.64
O=C(NC1CCOC1)c1cccc(S(=O)(=O)NCCCc2ncc[nH]2)c1 (stereo not given),-2.368
COc1nc(C)c(C(=O)N(C)Cc2nc(-c3ccccn3)no2)s1,-1.931
CNc1cc(C)nc(N2CCC3(CC2)[C@H](O)C[C@@H]3O)n1,-14.36
CCc1nc(CN2CCCN(C(=O)c3ccco3)CC2)cs1,17.21
O=C(NCCNc1cnccn1)N1CCCCCC1,7.293
COC[C@@H]1CCC[C@@]12CN(C(=O)N1CCCC1)CCO2,13.33
O=C(c1ccc(F)c(Br)c1)N1CCCN2CCCC2C1 (stereo not given),2.738
CN(CC(=O)NC1(C)CCS(=O)(=O)C1)Cc1ccc(F)c(F)c1 (stereo not given),11.5
c1cnnc(NCC2CN(CC3CCOCC3)CCO2)c1 (stereo not given),-2.216
c1ccc(Cc2noc(CN3CCCCC3Cn3cccn3)n2)cc1 (stereo not given),12.49
O=C(O)C(F)(F)F.O=C1CC[C@]2(CC[C@@H](NC(=O)NCc3cccnc3)CC2)N1,-8.844
c1cnn(CC2CN(Cc3nnc(C4CC4)o3)CCO2)c1 (stereo not given),3.142
Cc1ccc(CN2CCCn3nnc(COCC4CC4)c3C2)s1.O=C(O)C(F)(F)F,-7.266
CC(C)c1nc(CN2CCN(C(C)c3nc(C4CC4)no3)CC2)no1 (stereo not given),-18.85
CCn1nc(CNC(=O)C2CC(=O)N(C3CCCC3)C2)c2ccccc21 (stereo not given),4.824
Cc1ccc(C(NC(=O)[C@H]2CC[C@@H](O)CC2)c2cccnc2)cc1C (stereo not given in full),-6.652
COC(=O)CCc1c(C)nn(-c2nc(C)cc(=O)[nH]2)c1C,2.346
O=C(O)C(F)(F)F.O=C(O)C(F)(F)F.[H][C@@]12OCCN(CC3CCOCC3)[C@@]1([H])CC[C@H]2OCc1ccncc1,-5.714
CN(C)c1cc(CNC(=O)c2ccc(Br)cc2F)ccn1,-2.169
O=c1c2cnc(N3CCOCC3)nc2ccn1-c1ccccc1,-22.57 & -21.99
COCc1ncn2c1CN(C(=O)c1ccco1)CC2,6.404
O=C(c1cccnc1O)N1CCN(CCc2cccs2)CC1,4.135
C=C(C)CN1CCC(C(=O)c2cc(F)ccc2F)CC1,12.2

Some entries from above, unchanged:

SMILES,effect
CCc1nnc2n1CCN(C(=O)c1ccc(-c3ccco3)nc1C)C2,16.86
Cc1nc2ccnn2c(C)c1CCC(=O)N1CCSCC1,-7.989
O=C(c1ccc(F)c(Br)c1)N1CCCN2CCCC2C1 (stereo not given),2.738
c1ccc(-c2cc(CN3CCC(c4ccn[nH]4)CC3)on2)cc1,-6.471
CC(=O)Nc1nc(CN2CCOC(Cn3cncn3)C2)cs1 (stereo not given),-5.272
Cc1cnn(C2CN(Cc3nc(-c4ccccc4C)no3)C2)c1,2.082